# Results are given in words; binding and its absence hold for the method and conditions named. Some binding calls cover weakened binding; strength is not graded here.
# Sequences of proteins named here, by UniProt entry; tags and fusion partners are left off.
# UniProt Q1JPP8: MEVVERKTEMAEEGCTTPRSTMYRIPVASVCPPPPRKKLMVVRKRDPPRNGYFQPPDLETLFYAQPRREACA
# Target: SIAMESE-RELATED4 (SMR4) (Arabidopsis) (UniProt Q1JPP8)
# Test: two-hybrid
row,Binder,binding
1,"CYCD3;1 (protein, UniProt P42753 1-376) MAIRKEEESREEQSNSFLLDALYCEEEKWDDEGEEVEENSSLSSSSSPFVVLQQDLFWEDEDLVTLFSKEEEQGLSCLDDVYLSTDRKEAVGWILRVNAHYGFSTLAAVLAITYLDKFICSYSLQRDKPWMLQLVSVACLSLAAKVEETQVPLLLDFQVEETKYVFEAKTIQRMELLILSTLEWKMHLITPISFVDHIIRRLGLKNNAHWDFLNKCHRLLLSVISDSRFVGYLPSVVAAATMMRIIEQVDPFDPLSYQTNLLGVLNLTKEKVKTCYDLILQLPVDRIGLQIQIQSSKKRKSHDSSSSLNSPSCVIDANPFNSDESSNDSWSASSCNPPTSSSSPQQQPPLKKMRGAEENEKKKPILHLPWAIVATP",binds
2,"CYCD7;1 (protein, UniProt Q9LZM0 1-341) MDNLLCEESWPASPLTPEPLPNFRHRSHDNDVVKMYPEIDAATMEEAIAMDLEKELCFNNHGDKFVEFFVSKKLTDYRFHAFQWLIQTRSRLNLSYETVFSAANCFDRFVYMTCCDEWTNWMVELVAVTSLSIASKFNEVTTPLLEELEMEGLTHMFHVNTVAQMELIILKALEWRVNAVTSYTFSQTLVSKIGMVGDHMIMNRITNHLLDVICDLKMLQYPPSVVATAAIWILMEDKVCRESIMNLFEQNHKEKIVKCVDGMKNRDIDHQSSRRRYSEGRSILSLLQRGDVMNMNGDYNVEDLSKIFQIFRYEKKKRDRGNHQDNIRPAKRMTIEMSNYI",binds
3,"CYCD5;1 (protein, UniProt Q2V3B2 1-323) MGEPKDSLALFLCHESESSLNEDDDETIERSDKQEPHFTTTIDDEDYVADLVLKENLRFETLPSKTTSSSDRLIAIDWILTTRTRFGFQHQTAYIAISYFDLFLHKRFIGLQKDETWAMRLLSVACLSLAAKMEERIVPGLSQYPQDHDFVFKPDVIRKTELLILSTLDWKMNLITPFHYFNYFLAKISQDNHSVSKDLVLLRSSDSLLALTKEISFTEYRQFVVAAVTTLLASSSTSSDIRLTREEIANKFGSISWWTSNENENVYLCYQRTLEIEERKHMTPPPEIAVSREPPASGSGAKRRLSFDDSDQSSPPAKRMRRL",no binding

# Source: doi:10.1101/2021.05.17.442671
